Reference: paper PMC10451539
Residue numbers refer to the chain shown, from its start. No constants are given. Whether binding was seen depends on the method and setting. In cells and extracts the contact can be indirect. Some binding calls cover weakened binding; strength is not graded here. Where a sequence is shown, tags or fusion partners need not be part of it.

Chains of the proteins cited; added tags and fusions are not shown.
UniProt Q9UKB1: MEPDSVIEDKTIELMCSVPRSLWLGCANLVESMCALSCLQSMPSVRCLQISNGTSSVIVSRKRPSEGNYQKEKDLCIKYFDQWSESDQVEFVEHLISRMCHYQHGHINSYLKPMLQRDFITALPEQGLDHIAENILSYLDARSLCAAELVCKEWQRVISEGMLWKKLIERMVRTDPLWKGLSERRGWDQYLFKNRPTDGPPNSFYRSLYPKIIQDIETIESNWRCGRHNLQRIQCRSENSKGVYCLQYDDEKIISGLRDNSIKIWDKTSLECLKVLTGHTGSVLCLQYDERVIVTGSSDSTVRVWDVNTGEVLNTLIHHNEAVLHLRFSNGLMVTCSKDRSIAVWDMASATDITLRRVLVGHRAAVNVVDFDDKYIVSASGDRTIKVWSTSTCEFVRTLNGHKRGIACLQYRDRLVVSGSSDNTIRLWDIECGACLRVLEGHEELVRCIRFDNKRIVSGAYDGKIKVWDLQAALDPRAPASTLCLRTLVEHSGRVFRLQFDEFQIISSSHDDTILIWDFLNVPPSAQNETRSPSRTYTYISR

Tests used:
[1] = biological target: T1, EGFP-Myc-TM-Nrf2 (triple serine-alanine mutant Nrf2 S374/408/433→A) (UniProt Q16236); assay: proximity ligation; Keap1-null MEFs co-transfected 48 h; MG132 (10 μM, 4 h); without or with A769662 (50 μM, 4 h); fixed with 4% paraformaldehyde; primary antibodies against HA tag (βTrCP2) and MYC tag (Nrf2); Duolink PLA, confocal microscopy
T1 sequence: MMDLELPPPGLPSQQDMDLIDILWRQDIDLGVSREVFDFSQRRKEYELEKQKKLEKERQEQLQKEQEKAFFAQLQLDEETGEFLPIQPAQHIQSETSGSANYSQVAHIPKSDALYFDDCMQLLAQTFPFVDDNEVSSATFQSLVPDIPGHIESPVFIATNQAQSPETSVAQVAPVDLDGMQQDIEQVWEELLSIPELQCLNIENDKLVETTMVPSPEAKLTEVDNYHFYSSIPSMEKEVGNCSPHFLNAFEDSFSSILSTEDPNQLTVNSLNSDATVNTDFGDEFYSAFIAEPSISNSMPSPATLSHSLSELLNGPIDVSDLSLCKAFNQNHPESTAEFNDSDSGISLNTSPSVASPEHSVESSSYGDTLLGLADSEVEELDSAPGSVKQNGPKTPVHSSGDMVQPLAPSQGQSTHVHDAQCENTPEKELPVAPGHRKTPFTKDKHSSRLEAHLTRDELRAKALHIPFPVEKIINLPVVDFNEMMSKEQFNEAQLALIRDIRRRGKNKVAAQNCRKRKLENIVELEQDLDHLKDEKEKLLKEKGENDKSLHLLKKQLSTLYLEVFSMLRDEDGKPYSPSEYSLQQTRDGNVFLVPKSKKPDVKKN

[2] = biological target: T2, EGFP-Myc-WT-Nrf2 (Nuclear factor E2 p45-related factor 2, wild type) (UniProt Q16236); assay: as above
T2 sequence: T1 sequence with A374S, A408S, A433S

[3] = biological target: T1, EGFP-Myc-TM-Nrf2 (triple serine-alanine mutant Nrf2 S374/408/433→A); assay: co-IP; Keap1-null MEFs co-transfected 48 h; MG132 (10 μM, 4 h); without or with the AMPK activator A769662 (50 μM, 4 h); EGFP-Myc-Nrf2 pulled down with GFP-Trap; blots for MYC and HA
[4] = biological target: T2, EGFP-Myc-WT-Nrf2 (Nuclear factor E2 p45-related factor 2, wild type); assay: as above

Measured: binding

HA-tagged βTrCP2 (FBXW11) (from UniProt Q9UKB1 1-542)
binds: all assays above
